These are yes or no findings as the source states them, for the method shown. In cells and extracts the contact can be indirect. Some results given as binding are weak or reduced against the parent protein; the word gives no strength. Tags and fused reporters may be left off the sequences shown. Each block holds one binder with its values, some of them ahead of it.
Tests used:
[1] = target: T1, Flag‐RIP140 (UniProt Q8CBD1); experiment: co-IP; lysates of transfected 293T cells, immunoprecipitation with an anti-Flag antibody, partner detected with anti-HA
T1 sequence: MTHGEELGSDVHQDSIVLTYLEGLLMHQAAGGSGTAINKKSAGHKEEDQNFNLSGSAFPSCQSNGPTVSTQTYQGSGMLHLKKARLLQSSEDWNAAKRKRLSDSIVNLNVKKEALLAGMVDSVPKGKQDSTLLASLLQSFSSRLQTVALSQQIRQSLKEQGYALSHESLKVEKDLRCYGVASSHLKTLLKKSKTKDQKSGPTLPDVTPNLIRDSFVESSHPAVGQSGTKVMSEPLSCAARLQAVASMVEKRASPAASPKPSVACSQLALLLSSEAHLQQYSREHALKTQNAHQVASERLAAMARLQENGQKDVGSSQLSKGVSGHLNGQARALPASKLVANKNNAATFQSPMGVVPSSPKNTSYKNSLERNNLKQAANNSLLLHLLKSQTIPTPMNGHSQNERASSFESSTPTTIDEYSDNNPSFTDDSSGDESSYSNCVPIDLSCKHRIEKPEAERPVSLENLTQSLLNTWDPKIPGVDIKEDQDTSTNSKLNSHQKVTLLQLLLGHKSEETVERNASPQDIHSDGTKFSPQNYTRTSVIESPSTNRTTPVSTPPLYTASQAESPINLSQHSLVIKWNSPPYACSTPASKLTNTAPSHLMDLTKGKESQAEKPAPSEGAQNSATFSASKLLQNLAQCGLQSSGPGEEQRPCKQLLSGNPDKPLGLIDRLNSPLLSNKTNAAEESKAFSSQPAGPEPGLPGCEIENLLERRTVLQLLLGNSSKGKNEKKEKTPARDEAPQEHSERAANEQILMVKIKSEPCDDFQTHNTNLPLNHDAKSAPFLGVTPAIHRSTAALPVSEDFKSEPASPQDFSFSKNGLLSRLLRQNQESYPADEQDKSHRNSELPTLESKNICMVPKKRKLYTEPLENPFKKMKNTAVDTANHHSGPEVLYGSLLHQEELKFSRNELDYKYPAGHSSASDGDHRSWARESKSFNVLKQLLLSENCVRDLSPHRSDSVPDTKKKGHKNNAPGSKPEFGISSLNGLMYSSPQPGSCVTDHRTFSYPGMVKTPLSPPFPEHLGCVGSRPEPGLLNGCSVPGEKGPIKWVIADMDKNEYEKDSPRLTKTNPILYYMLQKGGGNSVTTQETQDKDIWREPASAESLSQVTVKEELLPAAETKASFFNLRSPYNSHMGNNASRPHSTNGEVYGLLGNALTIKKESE

[2] = target: T2, FADD (UniProt Q61160); experiment: as above
T2 sequence: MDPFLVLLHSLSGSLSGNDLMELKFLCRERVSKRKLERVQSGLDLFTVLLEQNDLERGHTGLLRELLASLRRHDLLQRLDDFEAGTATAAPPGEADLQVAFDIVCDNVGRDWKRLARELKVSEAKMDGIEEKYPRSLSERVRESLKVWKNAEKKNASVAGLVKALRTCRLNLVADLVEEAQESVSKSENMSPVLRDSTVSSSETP

binding [1]: binds
B1: FADD (protein, UniProt Q61160 1-205)
chain: T2 sequence

binding [2]: binds
B2: HA‐PPAR‐α (protein, UniProt P23204 1-468)
chain: MVDTESPICPLSPLEADDLESPLSEEFLQEMGNIQEISQSIGEESSGSFGFADYQYLGSCPGSEGSVITDTLSPASSPSSVSCPVIPASTDESPGSALNIECRICGDKASGYHYGVHACEGCKGFFRRTIRLKLVYDKCDRSCKIQKKNRNKCQYCRFHKCLSVGMSHNAIRFGRMPRSEKAKLKAEILTCEHDLKDSETADLKSLGKRIHEAYLKNFNMNKVKARVILAGKTSNNPPFVIHDMETLCMAEKTLVAKMVANGVEDKEAEVRFFHCCQCMSVETVTELTEFAKAIPGFANLDLNDQVTLLKYGVYEAIFTMLSSLMNKDGMLIAYGNGFITREFLKNLRKPFCDIMEPKFDFAMKFNALELDDSDISLFVAAIICCGDRPGLLNIGYIEKLQEGIVHVLKLHLQSNHPDDTFLFPKLLQKMVDLRQLVTEHAQLVQVIKKTESDAALHPLLQEIYRDMY

From PMC4967943
